# PubChem BioAssay AID624246 (National Center for Advancing Translational Sciences (NCATS), 2012)
# Sequences of proteins named here, by UniProt entry; tags and fusion partners are left off.
# UniProt P11308, whole entry, looked up: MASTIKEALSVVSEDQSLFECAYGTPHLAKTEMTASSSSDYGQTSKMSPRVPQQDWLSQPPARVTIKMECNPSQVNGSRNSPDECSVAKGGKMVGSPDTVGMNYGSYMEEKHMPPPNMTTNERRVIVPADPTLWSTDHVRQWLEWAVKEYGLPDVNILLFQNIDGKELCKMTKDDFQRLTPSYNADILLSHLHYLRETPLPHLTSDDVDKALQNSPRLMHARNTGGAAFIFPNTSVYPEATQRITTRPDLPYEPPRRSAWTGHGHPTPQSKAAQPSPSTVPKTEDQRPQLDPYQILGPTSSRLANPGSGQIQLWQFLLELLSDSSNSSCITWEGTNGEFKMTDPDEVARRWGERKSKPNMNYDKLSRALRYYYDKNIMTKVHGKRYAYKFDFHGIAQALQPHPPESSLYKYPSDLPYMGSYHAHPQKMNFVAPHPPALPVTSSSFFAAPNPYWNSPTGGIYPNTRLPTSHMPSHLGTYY
# Hit rate of the full screen: of about 370,000 compounds, about 100 (0.027%) were called active. Inconclusive means that the source gave no clear call. Such entries were picked first, then a sample of the others. Calls come from the whole dose curve; as a rule, active = well fitted inhibition curve with a large enough effect in the polarisation, with a control signal flat; inconclusive = small, poorly fitted or top-dose-only effect, or effect the other way, or a change in a side signal; inactive = no such curve, though single readings can be large or run the other way; the % refers to the polarisation. Potencies of inconclusive entries are doubtful fits and often do not repeat. A note “side channel” means that the fit belongs to a control or component signal, not to the main read-out.
# Biological target: Transcriptional regulator ERG (Homo sapiens) (UniProt P11308)
# Experiment: qHTS for Small Molecule Inhibitors of the ERG Ets/DNA interaction
# Details: fluorescence polarization, His-ERG Ets domain / labelled DNA; series mostly up to 76.9 µM
# Summary of the method: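 His-tagged ERG Ets domain (1 uM in the protein solution; 300mM KCl, 50mM Tris-HCl, 1mM EDTA, 1mM DTT, pH 7.5) received compound, then a probe mix of 5 nM fluorescein-DNA and 100nM Texas-615-DNA. Fluorescence polarization was read for both dyes.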
# Potency is the fitted concentration of half-maximal effect.
row,SMILES,Potency
1,CCN(CC)S(=O)(=O)c1ccc(C(C)NC(=O)C2CCCN2C(=O)c2cccs2)cc1 (stereo not drawn),"inconclusive: 31.6 µM [inhibitor, partial curve, poor fit]"
2,COCCSc1nnc(NC(=O)c2ccc(NC(C)=O)cc2)s1,"inconclusive: 50.1 µM [inhibitor, single point]"
3,Cc1cc(Br)ccc1NC(=O)CN1C(=O)c2cccnc2Sc2ccccc21,inactive
4,O=C(NCc1ccc(S(=O)(=O)Nc2ccccc2Cl)s1)c1ccccc1,"inconclusive: 50.1 µM [quencher, side channel, single point]"
5,Nc1nc(NCCCN2CCOCC2)nc(NCc2ccccc2)c1[N+](=O)[O-],"inconclusive: 35.5 µM [quencher, side channel, partial curve, poor fit]"
6,CC(=O)NCc1ccc(S(=O)(=O)N2CCN(c3ccccn3)CC2)cc1,"inconclusive: 31.6 µM [inhibitor, single point]"
7,CC(C)CCNC(=O)[C@@H](c1ccccc1)N1Cc2ccccc2C1=O,"inconclusive: 1.58 µM [quencher, side channel, partial curve, poor fit]"
8,Cc1ccc(S(=O)(=O)NCCSc2nnnn2-c2ccc(Cl)c(C(=O)O)c2)cc1,"inconclusive: 44.7 µM [quencher, side channel, single point]"
9,CCOC(=O)c1c(C)nc2c(c1-c1ccccc1)C(=O)c1ccccc1-2,inactive
10,COc1ccc(N2CC(NC(=O)c3ccc4c(c3)OCO4)CC2=O)cc1 (stereo not drawn),"inconclusive: 100 µM [inhibitor, single point]"
11,CCc1[nH]c(=O)c(C#N)c2c1COC(C)(C)C2,"inconclusive: 28.2 µM [fluorescent, side channel, partial curve, poor fit]"
12,O=C(COC(=O)c1ccccn1)Nc1nc(-c2cccc([N+](=O)[O-])c2)cs1,inactive
13,COc1cccc(-n2cc(-c3ccc(F)cc3)[nH]c2=S)c1,inactive
14,COC(=O)c1sc(NC(=O)c2oc3ccccc3c2C)nc1C,inactive
15,c1ccc(-c2nnc(CN3CCN(c4ccccn4)CC3)o2)cc1,inactive
16,CCOc1ccccc1NC(=O)Cn1c(=O)n(Cc2ccccc2)c(=O)c2c(C)c(C)sc21,"inconclusive: 31.6 µM [fluorescent, single point]"
17,Cc1ccc(Cl)cc1NC(=O)CSC(N)=O,inactive
18,CC1=C(C(=O)OCC2CCCO2)C(c2ccccc2OC(C)C)C2=C(CC(c3ccco3)CC2=O)N1 (stereo not drawn),inactive
19,Cc1cc(Nc2cccc(Cl)c2)nc2ccc(NC(=O)c3cccnc3)cc12,"inconclusive: 28.2 µM [quencher, side channel, partial curve, poor fit]"
20,CCC(=O)N1CCc2cc(Br)cc(S(=O)(=O)N3CCCC(C(=O)N(C)c4ccc(Br)cc4)C3)c21 (stereo not drawn),inactive
21,COCCOC1CCN(Cc2cn(Cc3ccccc3)nc2-c2cc3ccccc3o2)CC1,"inconclusive: 11.2 µM [inhibitor, single point]"
22,COC(=O)COc1ccc(C2Nc3c(Cl)ccc(C(=O)O)c3C3C=CCC32)cc1 (stereo not drawn),inactive

row,SMILES,Potency
1,CCN(CC)c1ccc([N+](=O)[O-])cc1C(=O)O,"inconclusive: 63.1 µM [inhibitor, single point]"
2,COc1ccc(CCNC(=O)Cn2c(=O)n(CCCC(=O)NCc3ccco3)c(=O)c3sccc32)cc1OC,"inconclusive: 44.7 µM [inhibitor, partial curve, poor fit]"
3,Cc1nc2ccc(C(=O)Nc3ccc(N(C)C)cc3)cc2s1,"inconclusive: 50.1 µM [inhibitor, partial curve, poor fit]"
4,O=C(CN1CCCCC1)Nc1ccc(Br)cc1[N+](=O)[O-],"inconclusive: 28.2 µM [inhibitor, single point]"
5,Cc1ccc2nc3c(cc(S(=O)(=O)c4ccccc4)c(=N)n3C3CCCC3)c(=O)n2c1,"inconclusive: 35.5 µM [inhibitor, partial curve]"
6,CC(=O)Nc1cc2c(cc1[N+](=O)[O-])-c1ccccc1C2=NO,inactive
7,COc1ccc(/C=C/C(=O)Nc2c(C(=O)O)[nH]c3ccccc23)cc1OC,"inconclusive: 0.891 µM [inhibitor, partial curve, poor fit]"
8,CC12CCC(C)(c3nc4ccccc4nc31)C2(C)C,inactive
9,CC(NC(=O)c1ccco1)c1nc(-c2ccc(C(C)(C)C)cc2)no1 (stereo not drawn),"inconclusive: 11.2 µM [inhibitor, single point]"
10,Cc1cc2ccccc2n1CCNC(=O)C(C)(C)C,active: 22.4 µM
11,S=C(NCc1ccco1)N/N=C/c1ccc(Cl)cc1,"inconclusive: 1.58 µM [quencher, side channel, full curve, poor fit]"
12,Cc1ccc(C(=O)CCC(=O)Nc2ccc(Cl)c(S(=O)(=O)Nc3cccc(Cl)c3)c2)cc1,"inconclusive: 14.1 µM [quencher, side channel, partial curve]"
13,O=C(N/N=C/c1ccsc1)c1cc2ccccc2o1,inactive
14,COc1ccc(CNC(=O)C2CCN(C(=O)c3ccc(-n4ccc5ccccc54)s3)CC2)cc1,inactive
15,COc1ccc(C(=O)NCCn2cc(SCC(=O)NCCc3ccc(OC)c(OC)c3)c3ccccc32)cc1,"inconclusive: 6.31 µM [quencher, side channel, partial curve, poor fit]"
16,O=C(Nc1nc(-c2cc3ccccc3o2)cs1)c1ccc(S(=O)(=O)N2CCCC2)cc1,inactive
17,FC(F)Sc1ccc(NC(=S)NCc2ccccc2)cc1,inactive
18,O=C(NCc1ccc2c(c1)OCO2)C1CCN(S(=O)(=O)N2CCCCC2)CC1,"inconclusive: 10 µM [inhibitor, partial curve, poor fit]"
19,O=C(Nc1cc(Cl)ccc1Cl)C1CC(=O)N(c2ccc(Br)cc2)C1 (stereo not drawn),inactive
20,COc1ccc(-c2nn(C)c3sc(C(=O)Nc4cc(OC)c(OC)c(OC)c4)cc23)cc1OC,"inconclusive: 10 µM [quencher, side channel, partial curve]"
21,NC(=O)c1ccc(N2CCN(c3ccccc3O)CC2)c([N+](=O)[O-])c1,"inconclusive: 50.1 µM [inhibitor, single point]"

# 3 structures already listed, ordered by number of heavy atoms, ascending:
row,SMILES,Potency
4,O=C(CN1CCCCC1)Nc1ccc(Br)cc1[N+](=O)[O-],"inconclusive: 28.2 µM [inhibitor, single point]"
17,FC(F)Sc1ccc(NC(=S)NCc2ccccc2)cc1,inactive
6,CC(=O)Nc1cc2c(cc1[N+](=O)[O-])-c1ccccc1C2=NO,inactive
